PubChem BioAssay AID652259, Drosophila RNAi Screening Center | 2013

Purpose: 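Identify new Wingless signalling regulators in fly cells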 (primary screen)
Cells: Drosophila clone 8 imaginal disc epithelial cells
Reagents: long dsRNA against Drosophila genes
Conditions: pathway stimulated by co-transfected Wingless expression plasmid
Detection: 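Firefly luciferase from a tcf-site Wingless reporter, measured alongside co-transfected Renilla luciferase that tracks transfection; pathway stimulated by a Wingless plasmid; the firefly-to-Renilla ratio is not deposited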
Direction: firefly reporter light: higher = more Wg reporter light, before normalisation; Renilla control light: higher = more transfected or surviving cells
Call rule: 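a knock-down is a candidate when at least two out of four statistical tests show it departing from its plate mean; one test alone signals a weak candidate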
Calls: active = candidate regulator (raises or lowers reporter); inactive = not a candidate
The screen tested about 22,000 reagents; shown is a random part of those with a known target gene and a result. In the full data, 233 (1.1%) were called active. 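Light values are raw, unnormalised plate reads; the ratio scores behind the reporter calls were not deposited.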 Unmarked entries are inactive. The numbers tell different reagents against one gene apart. Reagent sequences are not shown. Not given: the amount of reagent, the time to read-out, the dose of the treatment.

rn (rotund) #1
- firefly reporter light, replicate 1: 14656
- Renilla control light, replicate 1: 1884

rn (rotund) #2
- firefly reporter light, replicate 1: 15430
- Renilla control light, replicate 1: 4817

rn (rotund) #3
- firefly reporter light, replicate 1: 13388
- Renilla control light, replicate 1: 5155

rn (rotund) #4
- firefly reporter light, replicate 1: 18816
- Renilla control light, replicate 1: 4816

rn (rotund) #5
- firefly reporter light, replicate 1: 5.82e5
- firefly reporter light, replicate 2: 7.22e5
- Renilla control light, replicate 1: 1.59e5
- Renilla control light, replicate 2: 1.85e5

CG14752
- firefly reporter light, replicate 1: 3062
- firefly reporter light, replicate 2: 10736
- Renilla control light, replicate 1: 1053
- Renilla control light, replicate 2: 3504

An excerpt from above, limited to “firefly reporter light, replicate 1”:
rn (rotund) #1 = 14656
rn (rotund) #2 = 15430

The results go on:
CG16812
- firefly reporter light, replicate 1: 12244
- Renilla control light, replicate 1: 1809

Flacc (Fl(2)d-associated complex component)
- firefly reporter light, replicate 1: 1932
- firefly reporter light, replicate 2: 6781
- Renilla control light, replicate 1: 1147
- Renilla control light, replicate 2: 2672

CG43127
- firefly reporter light, replicate 1: 3744
- Renilla control light, replicate 1: 1261

CG14835
- firefly reporter light, replicate 1: 1699
- firefly reporter light, replicate 2: 9260
- Renilla control light, replicate 1: 1309
- Renilla control light, replicate 2: 3371

CG13114
- firefly reporter light, replicate 1: 3931
- firefly reporter light, replicate 2: 7863
- Renilla control light, replicate 1: 1368
- Renilla control light, replicate 2: 3392

Rcd4 (Reduction in Cnn dots 4)
- firefly reporter light, replicate 1: 2632
- firefly reporter light, replicate 2: 7952
- Renilla control light, replicate 1: 900
- Renilla control light, replicate 2: 2857

Zip42C.1 (Zinc/iron regulated transporter-related protein 42C.1)
- firefly reporter light, replicate 1: 3821
- firefly reporter light, replicate 2: 6759
- Renilla control light, replicate 1: 651
- Renilla control light, replicate 2: 1644

Iyd (Iodotyrosine deiodinase) #1
- firefly reporter light, replicate 1: 7223
- Renilla control light, replicate 1: 2765

Iyd (Iodotyrosine deiodinase) #2
- firefly reporter light, replicate 1: 7048
- Renilla control light, replicate 1: 3417

CG1090 #1
- firefly reporter light, replicate 1: 8157
- Renilla control light, replicate 1: 4112

CG1090 #2
- firefly reporter light, replicate 1: 6.26e5
- firefly reporter light, replicate 2: 6.54e5
- Renilla control light, replicate 1: 3.28e5
- Renilla control light, replicate 2: 2.39e5
